Experimental findings from patent US20030129170 are described below.

Results from cells or extracts need not show a direct contact. Where a protein sequence is shown, tags need not be part of it.

In the data set the target is T1, goosecoid-like homeodomain protein (gscl) (Mus musculus) (UniProt P56916).
T1 sequence (looked up, limits assumed): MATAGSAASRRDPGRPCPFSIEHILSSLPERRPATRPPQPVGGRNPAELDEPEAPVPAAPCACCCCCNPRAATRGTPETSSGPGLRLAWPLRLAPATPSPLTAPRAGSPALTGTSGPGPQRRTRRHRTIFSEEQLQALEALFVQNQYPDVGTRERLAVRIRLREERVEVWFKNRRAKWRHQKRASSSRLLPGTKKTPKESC
Put plainly: EMSA. The conditions noted are these: protein in a lysate after overexpression. On the technique in general: Mobility shift assays separate free from complexed probe on a gel.

Where [1] appears, read: specific binding by EMSA and supershift, data not shown.

In the case of TGTAATCCC (double strand) [hTH BBE IV], the binding result under setting [1] is “binds”.
As for GCTAATCCC (double strand) [hTH BBE II], the binding result (specific complex, supershifted by anti-gscl antiserum, competition with 25x and 12.5x unlabeled BBE II, label: 32P) is recorded as “binds”.
In the case of TGTAATCCC (double strand) [hTH BBE I], the binding result under setting [1] was “binds”.
Still for that read-out and setting: then GCTAATCCC (double strand) [hTH BBE III], with “binds”.
